Data as given in PubChem BioAssay AID1053208 (Peter MacCallum Cancer Centre, 2014)
Here is an unselected part of about 17,000 reagents. In the full data, 788 (4.7%) were called active. 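Calls rest on z-score classes alone; an extra cut-off of viability at most 70% of control was not applied to them.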 A number with no mark means an inactive call. Further read-outs or replicates are left out here.

- Aim: 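Genes whose silencing cuts survival of bone tumour cells only with doxorubicin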 (primary screen)
- Cells: mouse osteosarcoma cells, early-passage culture from an engineered mouse model of fibroblastic bone tumour
- Reagent: siRNA pool against mouse genes, 40 nM
- Timing: about 120 h (48 h before drug, then 72 h with drug)
- Challenge: doxorubicin 100 nM for 72 h, roughly 30-40% inhibitory dose
- Measurement: 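Luminescent ATP signal taken as viability with or without 100 nM doxorubicin for 72 h; mean of two wells set against non-targeting siRNA and turned into robust z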
- Scale: viability z-score with doxorubicin: higher = more viable cells under doxorubicin; viability z-score without drug: higher = more viable cells with knock-down alone
- Active means: 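Called active if knock-down leaves viability unchanged without drug (z within -2 to 2) but lowers it with doxorubicin (z at or under -2)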

no.	gene	combined z-score class	viability z-score with doxorubicin	viability z-score without drug
1	Cxcl10	no change with or without drug	0.45	-1.18
2	Echdc3	high cell count without drug only	0.56	2.53
3	Faxc	no change with or without drug	0.22	0.51
4	2810032G03Rik	no change with or without drug	1.12	-0.84
5	Or8g34	no change with or without drug	-1.01	-0.51
6	Cimap2	no change with or without drug	-0.22	1.35
7	Acsm3	no change with or without drug	0.11	-0.17
8	Sack1f	no change with or without drug	-0.9	-0.34
9	Gpr183	no change with or without drug	-0.22	-1.35
10	Or7a42	no change with or without drug	-1.12	-0.17
11	Armc2	no change with or without drug	0.45	1.18
12	Pde6g	no change with or without drug	-0.22	0.51
13	Olah	high cell count with doxorubicin only	2.02	-0.17
14	Pnrc1	no change with or without drug	1.35	0.84
15	Ankrd33	no change with or without drug	-1.12	0.51
16	Bcl3	no change with or without drug	0.34	-1.01
17	Clic3	no change with or without drug	0.45	0.17
18	Stmn3	no change with or without drug	-0.9	-1.52
19	Ankrd48	no change with or without drug	-0.22	-0.17
20	Myg1	no change with or without drug	0.67	1.69
